PubChem BioAssay AID652272 – Drosophila RNAi Screening Center | 2013
In all, the deposit lists about 21,000 reagents; below is a random part of those with a known target gene and a result. Of all reagents, 503 (2.4%) are marked active. 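Raw plate light values, not normalised; calls rest on replicate z-scores that were not deposited; hits include reporter decreases as well as increases.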 A number with no mark means an inactive call. A plus sign joins genes that one reagent is predicted to hit. No sequences are given here. Not given: the amount of reagent, the time to read-out.

- Purpose: 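Genes whose knock-down decreases or increases Hedgehog reporter output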 (primary screen)
- System: Drosophila clone 8 (Cl8) cells
- Reagent: long dsRNA against Drosophila genes
- Detection: 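Plate reader light from a firefly reporter under a ptc promoter fragment that responds to Hedgehog, with Renilla light as transfection reference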
- Scale: firefly Hh reporter signal: higher = more ptc reporter light; Renilla reference signal: higher = more Renilla control light
- Rule for the call: 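Hit when the z-score averaged over two replicates is under -2 or over +3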
- Calls: active = hit: reporter lowered or raised; inactive = not a hit

The first 2 entries as a preview:
CG7179 [DRSC03020] | firefly Hh reporter signal, replicate 1: 62977; firefly Hh reporter signal, replicate 2: 46107; Renilla reference signal, replicate 1: 1523; Renilla reference signal, replicate 2: 4464
CG42857 [DRSC12750] | firefly Hh reporter signal, replicate 1: 1.88e5; Renilla reference signal, replicate 1: 2461

Results, from the first entry:
CG7179 [DRSC03020] | firefly Hh reporter signal, replicate 1: 62977; firefly Hh reporter signal, replicate 2: 46107; Renilla reference signal, replicate 1: 1523; Renilla reference signal, replicate 2: 4464
CG42857 [DRSC12750] | firefly Hh reporter signal, replicate 1: 1.88e5; Renilla reference signal, replicate 1: 2461
CG8539 [DRSC10988] | firefly Hh reporter signal, replicate 1: 2.19e5; firefly Hh reporter signal, replicate 2: 1.69e5; Renilla reference signal, replicate 1: 8585; Renilla reference signal, replicate 2: 6256
Ttc26 [DRSC15591] | firefly Hh reporter signal, replicate 1: 5.76e5; firefly Hh reporter signal, replicate 2: 82770; Renilla reference signal, replicate 1: 3541; Renilla reference signal, replicate 2: 3541
wash [DRSC06302] | firefly Hh reporter signal, replicate 1: 82680; firefly Hh reporter signal, replicate 2: 44435; Renilla reference signal, replicate 1: 2104; Renilla reference signal, replicate 2: 3856
Ir7f [DRSC18012] | firefly Hh reporter signal, replicate 1: 60813; firefly Hh reporter signal, replicate 2: 2.53e5; Renilla reference signal, replicate 1: 1736; Renilla reference signal, replicate 2: 9605
Sin3A [DRSC07552] | firefly Hh reporter signal, replicate 1: 57314; firefly Hh reporter signal, replicate 2: 26992; Renilla reference signal, replicate 1: 2823; Renilla reference signal, replicate 2: 1377
Sec6 [DRSC06932] | firefly Hh reporter signal, replicate 1: 95995; firefly Hh reporter signal, replicate 2: 82548; Renilla reference signal, replicate 1: 3590; Renilla reference signal, replicate 2: 3025
aph-1 [DRSC00547] | firefly Hh reporter signal, replicate 1: 64726; firefly Hh reporter signal, replicate 2: 58663; Renilla reference signal, replicate 1: 3133; Renilla reference signal, replicate 2: 3099
TyrRII [DRSC15150] | firefly Hh reporter signal, replicate 1: 5.06e5; firefly Hh reporter signal, replicate 2: 94928; Renilla reference signal, replicate 1: 25904; Renilla reference signal, replicate 2: 3036
CR32733 + CG32797 [DRSC17705] | firefly Hh reporter signal, replicate 1: 5.29e5; firefly Hh reporter signal, replicate 2: 5.92e5; firefly Hh reporter signal, replicate 3: 2.20e5; Renilla reference signal, replicate 1: 18425; Renilla reference signal, replicate 2: 4629
obst-G [DRSC11103] | firefly Hh reporter signal, replicate 1: 81628; firefly Hh reporter signal, replicate 2: 37793; firefly Hh reporter signal, replicate 3: 43270; Renilla reference signal, replicate 1: 3347; Renilla reference signal, replicate 2: 2978
CG9483 [DRSC03226] | firefly Hh reporter signal, replicate 1: 54364; firefly Hh reporter signal, replicate 2: 90466; Renilla reference signal, replicate 1: 2741; Renilla reference signal, replicate 2: 3185
CG30002 [DRSC05182] | firefly Hh reporter signal, replicate 1: 88048; firefly Hh reporter signal, replicate 2: 2.38e5; Renilla reference signal, replicate 1: 2116; Renilla reference signal, replicate 2: 9858
